# Measurements: patent publication US8518859B2, “Method for increasing yield of staple food crop” (National University Corporation Shizuoka University, priority 2009, dated 2013)
# Tests used:
# Type in all cases: in vivo, rice (genus Oryza)
# [1] = system: rice (Nipponbare); experiment: Yield-increasing effect in soil culture of rice 2 (Example 3); conditions: n=6
# Experimental: Soil culture was carried out from Jun. 10, 2009 to Sep. 29, 2009 in the same manner as in Example 1, except that seedlings of rice (Nipponbare) obtained by a 30-day cultivation were transplanted one by one to a soil (in 1/5000-a pot) which contains a fertilizer containing N (1,440 mg), P2O5 (12 mg), K2O (760 mg) and CaO (806 mg).
# Water and nutrients were supplied once a day. As the medium used for the addition, the culture medium for the AHX (5 μM)-treated section, the culture medium for the ICA (2 μM)-treated section and the culture medium the control section were respectively used in the AHX (5 μM)-treated section, the ICA (2 μM)-treated section and the control section. It is noted here that, unlike the case of hydroponic culture, the culture medium was not replaced.
# The cereal crops obtained by the soil culture were dried for 2 weeks and the following items were measured: brown rice mass; water content of brown rice; size and number of brown rice (per plant); panicle length; culm length; number of panicles; and mass of the above-ground part (n=6).
# [2] = system: rice (Nipponbare); experiment: Yield-increasing effect in soil culture of rice 1 (Example 2); conditions: AHX 50 μM, soil culture 97 days, n=7
# Experimental: Soil culture was carried out for 97 days starting in July in the same manner as in Example 1, except that seedlings of rice (Nipponbare) were transplanted one by one to a soil (in 1/5000-a pot) which contains a fertilizer containing N (1,440 mg), P2O5 (12 mg), K2O (760 mg) and CaO (806 mg).
# Water and nutrients were supplied once a day. As the medium used for the addition, the culture medium for the AHX (50 μM)-treated section and the culture medium for the control section were respectively used in the AHX (50 μM)-treated section and the control section. It is noted here that, unlike the case of hydroponic culture, the culture medium was not replaced.
# The cereal crops obtained by the soil culture were dried for 2 weeks and the following items were measured in the same manner as in Example 1: brown rice mass; water content, carbon content and nitrogen content of brown rice; size and number of brown rice (per plant); leaf length; culm length; panicle length; number of panicles; tiller number; and mass of the above-ground part (n=7).
# [3] = system: Rice (cultivar: "Nipponbare"); experiment: Yield-increasing effect in hydroponic culture of rice (Example 1); conditions: AHX 50 μM, hydroponic culture 97 days, n=6
# Experimental: Rice (cultivar: “Nipponbare”) was used in the test. Seeds thereof were sown in a nursery box, and after 20 days of cultivation, the resulting rice seedlings were transplanted one by one to a pot (1/5000-a) and cultivated for 1 week with tap water.
# After the cultivation with tap water, the thus obtained rice plants were cultured in a culture medium added with the AHX (50 μM), which was synthesized in the above, in an outdoor environment over a period of 97 days starting in July.
# During the periods from the 8th day to the 32nd day and the period from the 73rd day to the 97th day after the transplantation, the culture was carried out in a medium having a half concentration of the undiluted culture medium, and during the period from the 33rd day to the 72nd day, the undiluted culture medium was used.
# Water and nutrients were supplied once every 3 days. As the medium used for the addition, the culture medium for the AHX-treated section and the culture medium for the control section were respectively used in the AHX-treated section and the control section. It is noted here, however, that the culture medium was replaced once a week in the case of hydroponic culture.
# The cereal crops obtained by the culture were dried for 2 weeks and the following items were measured: brown rice mass; water content, carbon content and nitrogen content of brown rice; size and number of brown rice (per plant); leaf length; culm length; panicle length; number of panicles; tiller number; and mass of the above-ground and underground parts. Here, the size of brown rice means the mass per grain determined from the brown rice mass (g/100 brown rice grains) and the number of brown rice refers to a value obtained by dividing the brown rice weight (g/plant) by the brown rice weight (g/100 brown rice grains) (number of plants n=6).
SMILES,Water content (%) of brown rice ([1]; 2 μM) [%],Total carbon content (mg/g) of brown rice [2] [mg/g],Total nitrogen content (mg/g) of brown rice [2] [mg/g],Water content (%) of brown rice [2] [%],Total carbon content (mg/g) of brown rice [3] [mg/g],Total nitrogen content (mg/g) of brown rice [3] [mg/g],Water content (%) of brown rice [3] [%],Water content (%) of brown rice ([1]; 5 μM) [%]
"NC(=O)c1c[nH]cn1 [ICA, imidazole-4-carboxamide]",11.8,–,–,–,–,–,–,–
"O=c1[nH]nnc2nc[nH]c12 [AHX, 2-azahypoxanthine]",–,421,12.3,14.0,429,16.3,13.2,11.8
